# Percent effect of library compounds

By UniProt entry, the sequences of proteins in these tests, tags left out. Residues count along the entry.
UniProt Q8IDJ8, 1-583: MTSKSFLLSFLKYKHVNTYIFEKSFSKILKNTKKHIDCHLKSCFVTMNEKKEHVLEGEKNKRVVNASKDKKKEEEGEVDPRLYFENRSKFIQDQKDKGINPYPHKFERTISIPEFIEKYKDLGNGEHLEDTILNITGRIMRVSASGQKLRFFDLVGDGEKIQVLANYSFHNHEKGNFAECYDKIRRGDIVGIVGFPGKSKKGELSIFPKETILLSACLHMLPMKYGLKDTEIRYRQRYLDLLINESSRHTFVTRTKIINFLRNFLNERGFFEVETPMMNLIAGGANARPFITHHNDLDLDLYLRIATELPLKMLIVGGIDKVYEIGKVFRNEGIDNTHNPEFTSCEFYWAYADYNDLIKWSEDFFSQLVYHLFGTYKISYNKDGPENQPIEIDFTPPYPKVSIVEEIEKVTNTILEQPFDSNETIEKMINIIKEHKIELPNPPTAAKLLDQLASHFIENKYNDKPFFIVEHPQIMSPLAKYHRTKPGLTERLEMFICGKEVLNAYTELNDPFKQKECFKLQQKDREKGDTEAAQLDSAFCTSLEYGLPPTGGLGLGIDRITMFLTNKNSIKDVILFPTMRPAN

The filed quantity is “Percent Effect” (%).
The controls that fix the scale are not given in the record; negative values are as filed.
This is an unselected part of the compounds tested.

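Lysine-tRNA ligase, Plasmodium falciparum 3D7 (UniProt Q8IDJ8). Enzyme assay of the cytosolic lysyl-tRNA synthetase in 384-well plates, read by luminescence. Tested at 30 µM. Direction is inferred from only a few compounds that gave an IC50; most scored high, so higher reads as stronger inhibition. About 69,000 compounds were tested under these conditions; 0.071% (about 49) showed 50% or more at least once.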

| Compound | percent effect |
|---|---|
| `CC(C)Oc1ncccc1CNC(=O)N1CCOCC1` | 1.115 |
| `COCC1CN(c2ccc(C#N)c(Cl)c2)CCO1` (centres undefined) | 7.116 |
| `O=C(CCn1cncn1)NCC1CCCC1` | -1.374 |
| `CCCOc1cccc(C(=O)Oc2cc(=O)n3cccc(C)c3n2)c1` | 3.589 |
| `Cc1cnn(C2CCCN(C(=O)c3cc(C4CC4)on3)C2)c1` (centres undefined) | -2.391 |
| `O=C(c1ccccc1N1CCOCC1)N1CCCC(n2ccnc2)C1` (centres undefined) | -0.1201 |
| `O=C(NCCNC(=O)c1ccc(Br)cc1)c1ccc(O)cc1` | 3.901 |
| `OC1(CNc2cccc(F)c2)CCNCC1` | 8.715 |
| `COc1ccc(C(O)CN2CC(n3nc(C)cc3C)C2)cc1` (centres undefined) | 0.2531 |
| `CC(C)c1noc(-c2ccc(NCC3CCCOC3)nc2)n1` (centres undefined) | 4.97 |
| `CC(=O)N(C)CCCc1cc(-c2ccccc2)no1` | 0.8567 |
| `CCC(CC)NC(=O)c1ccc2nnc(C3CCN(S(C)(=O)=O)C3)n2c1` (centres undefined) | 2.155 |
| `COCC1c2c(cnn2CC2CC2)CCN1Cc1ccc(OC)cc1` (centres undefined) | -3.156 |
| `CC(C)c1noc(CCC(=O)N2CCSCC2)n1` | -1.645 |
| `Cc1ccc(C(=O)N2CCN(C(=O)Nc3ccccn3)CC2)o1` | 1.111 |
| `CC(C)n1cc(C(=O)N2Cc3ccccc3OC3(CCOCC3)C2)cn1` | -4.983 |
| `CC(C)CN1CCc2[nH]cnc2C12CCN(C(=O)c1cc[nH]n1)CC2` | 6.908 |
| `O=C1CCC2(CCN(CC[C@@H](O)c3ccccc3)CC2)CN1CC1CC1` | 7.783 |
| `COCC1(CNC(=O)[C@@]23CNC[C@@H]2CN(C2CCCC2)C3)CC1` | 5.657 |
| `CC(C)(C)C(=O)N1CCC(c2nc(O)cc(-c3ccccn3)n2)CC1` | 2.411 |
| `Cc1[nH]nc2ncc(C(=O)N3CCN(CC(C)O)CC3)cc12` (centres undefined) | 0.344 |
| `O=C(C1CCOC1)N1C[C@@H]2CCN(C(=O)c3cscn3)[C@@H]2C1` (some centres undefined) | 3.058 |
| `CCCn1ccnc1SCCNS(=O)(=O)c1ccccc1` | 8.322 |
| `Cc1nn(CC(C)C)c(C)c1CC(=O)N1CCCC(CNS(C)(=O)=O)C1` (centres undefined) | -1.701 |
| `O=C(Nc1ccc(OCc2cccc(F)c2)c(F)c1)C1COCCO1` (centres undefined) | 1.344 |
| `CCn1cncc1C1CC(=O)Nc2c1c(C)nn2-c1ccc(C)cc1` (centres undefined) | 5.752 |
| `Cc1oncc1C(=O)N1CC[C@H]2[C@@H]1CCC(=O)N2c1cccnc1` | 0.6033 |
| `CN(Cc1cccc(O)c1)C(=O)Nc1cccnc1N1CCCC1` | -1.336 |
| `FC(F)Oc1ccccc1CN1CCCC(c2nccn2CC2CC2)C1` (centres undefined) | 4.155 |
| `CC(NS(N)(=O)=O)c1ccc(OCc2ccc(F)cc2)cc1` (centres undefined) | 4.304 |
| `Fc1ccccc1-c1noc2c1CN(CC1CC1)CC2` | 1.658 |
| `O=S(=O)(CCc1ccccc1)Nc1cc(Cl)ccn1` | 3.225 |
| `Cc1nc(C)c(CCN2CCC(Oc3ccccc3F)CC2)s1` | 1.442 |
| `CCN(CC(C)C#N)C(=O)c1cccc(COc2ccc(C)nc2)c1` (centres undefined) | 3.838 |
| `CC(C)(C)c1ncc(C(=O)NCCS(N)(=O)=O)s1` | -1.58 |
| `COc1ccc(C[C@H]2CN(c3cc(OC)ncn3)CC[C@H]2OC)cc1` | 4.027 |
| `CC(C)(C)S(=O)(=O)c1ccc(N2CCC(n3ccnc3)CC2)cn1` | 2.995 |
| `CS(=O)(=O)NCc1cccc(COC2CCCCC2)c1` | -0.5769 |
| `O=C1NCC[C@]12CN(Cc1ccncc1)C[C@H]2c1ccccc1` | 2.305 |
| `CN(c1ncc(S(N)(=O)=O)s1)C1CCC1` | 0.4062 |
| `c1nc2c(c(C3CC3)n1)CCN(Cc1ccoc1)CC2` | -1.612 |
| `Cc1ccc(C(=O)N2CCSCC2)cc1NC(=O)Cn1cncn1` | 3.739 |
| `CC(C)Cn1nc2ccc(S(=O)(=O)N3CCC(C)CC3)cn2c1=O` | -3.212 |
| `CCOC(=O)[C@]12CCCN(Cc3ccsc3)C[C@H]1CN(CCOC)C2` | 2.138 |
| `Cc1c(C(=O)NCC2CCN(Cc3c[nH]cn3)C2)[nH]c2ccccc12` (centres undefined) | -2.268 |
| `CCCc1cc(C(=O)N2C[C@H]3CC=C(C)C[C@H]3C2)ccn1` | 7.989 |
| `CC(=O)N1CCc2[nH]cnc2C12CCN(CC1CCOC1)CC2` (centres undefined) | 4.595 |
| `COCCOCC(=O)Nc1ccc(C)cc1Br` | 9.292 |
| `C=C(C)Cn1nnc(C2(NC(=O)c3ccccc3)CCCC2)n1` | 3.038 |
| `CC(C)N(C)Cc1noc2c1CN(C(=O)c1ccsc1)CC2` | 4.743 |
| `CC(C)c1cc(C(=O)N2CCN(Cc3ccsc3)CC2)n[nH]1` | 2.39 |
| `CC(OCC(F)(F)F)C(=O)Nc1ccc(-n2cncn2)nc1` (centres undefined) | 1.939 |
| `Cc1ccc2cccc(C(=O)NCC3CCN(C(C)C)C3)c2n1` (centres undefined) | -2.494 |
| `O=C(c1ccncc1)N1CCCC(C2=Nc3ccccc3S(=O)(=O)N2)C1` (centres undefined) | 2.619 |
| `CC(=O)N1CC(=O)N(c2ccccc2)CC12CCN(Cc1ccsc1)C2` (centres undefined) | 6.962 |
| `Cc1noc(C)c1CN1C(=O)[C@H]2CC[C@@H]1CN(C(=O)c1cscn1)C2` | 5.256 |
| `c1coc(-c2nc3c(c(NCc4n[nH]c5c4CCC5)n2)CCNCC3)c1` | -5.652 |
| `CCN(CC)[C@@H]1CN(Cc2nccn2C)[C@@H]2CCCO[C@H]12` | 5.12 |
| `O=C(c1cccc(F)c1)N1C[C@H]2CCCC(OCc3cccnc3)[C@H]2C1` (some centres undefined) | 0.6554 |
| `CC(NC(=O)Cc1ccon1)c1ccc(OCC2CC2)c(F)c1` (centres undefined) | 1.988 |
| `CC(C)COC(=O)N1CCCN(C(C)c2nc(C(C)C)no2)CC1` (centres undefined) | -1.051 |
| `Cc1cccc2[nH]c(C3CCCN(Cc4ccc(CO)o4)C3)nc12` (centres undefined) | -0.05954 |
| `COc1ccccc1C(=O)Nc1c(C)cnn1CC1CC1` | 1.344 |
| `Cc1nc(CN2CCN(C)C(=O)C23CCN(CC2CCCC2)CC3)cs1` | 2.916 |
| `O=C(c1cc[nH]n1)N1CCCC1C1CCN(Cc2ccccc2)CC1` (centres undefined) | 4.469 |
| `O=C1CN(Cc2ccc3ccccc3n2)CCN1C1CCCC1` | 2.455 |
| `COCCNC(=O)[C@@H]1CN(c2cc(OC)ncn2)C[C@H]2OCC[C@H]21` | 1.948 |
| `Cc1ccc(O[C@@H]2C[C@H]3CN(c4ncc(F)cn4)CCN3C2)cc1` | 4.475 |
| `CCC1C=CCN1C(=O)c1cc(COc2ccccc2OC)[nH]n1` (centres undefined) | -0.9081 |
| `CNc1cc(C)nc(NC2CCCN(C3Cc4ccccc4C3)C2)n1` (centres undefined) | -0.4042 |
| `CC(CC#N)n1ccc(C(F)(F)F)n1` (centres undefined) | 2.064 |
| `COCCO[C@H]1CCN(C(=O)c2ccsc2)[C@H]1Cc1cnn(C)c1` | 2.866 |
| `CCC(=O)Nc1nnc(CCOc2cccc(OC)c2)s1` | -2.251 |
| `COc1ccc2c(CN3CCN(Cc4cccc(F)c4)CC3)n[nH]c2c1` | -1.742 |
| `O=C(Nc1ccc(S(=O)(=O)Nc2ccccc2)cc1)N1CCCC1` | 7.024 |
| `Cc1cccc(C(=O)N2CCO[C@H]3[C@H](OCCN(C)C)CC[C@@H]32)n1` | 8.543 |
| `Cc1cc(N2CCCCC2)c(C#N)c(C)n1` | 5.975 |
| `Cc1cnn(CCNCc2csc(-c3ccc4c(c3)OCO4)n2)c1` | -4.62 |
| `O=S(=O)(NC1CCC12CCN(CC1CCOCC1)CC2)c1ccccc1` (centres undefined) | 15.73 |
| `Clc1ccccc1-c1nnc(CNCCn2cccn2)o1` | 0.4473 |
| `COCCO[C@@H]1CCN(c2cc(OC)ncn2)[C@H]1Cc1cnn(C)c1` | -3.26 |

The last 5 entries again:

| Compound | percent effect |
|---|---|
| `Cc1cc(N2CCCCC2)c(C#N)c(C)n1` | 5.975 |
| `Cc1cnn(CCNCc2csc(-c3ccc4c(c3)OCO4)n2)c1` | -4.62 |
| `O=S(=O)(NC1CCC12CCN(CC1CCOCC1)CC2)c1ccccc1` (centres undefined) | 15.73 |
| `Clc1ccccc1-c1nnc(CNCCn2cccn2)o1` | 0.4473 |
| `COCCO[C@@H]1CCN(c2cc(OC)ncn2)[C@H]1Cc1cnn(C)c1` | -3.26 |

From ChEMBL document CHEMBL3988442, “University of Dundee, Small-Polar-MMV Screening Library” (2021).